## Results of single-concentration screens

The values are deposited in ChEMBL (CHEMBL3988442, “University of Dundee, Small-Polar-MMV Screening Library” (2021)).

Each number is a percent effect as filed.
The record does not define 0% and 100%; most values in the screen are far below 50% and negative numbers occur (in some assays of this library far below -100).
This is an unselected part of the compounds tested.

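Assay of Toxoplasma gondii numbers, read through their beta-galactosidase reporter with a colour substrate. Concentration: 50 µM. Higher reads as fewer parasites (inferred from which compounds were picked for retests). Size under these conditions: about 18,000 compounds, about 170 of them at 50% or above in at least one test.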

For CC(Cn1cccn1)NC(=O)CN1CCOC1=O (stereo not drawn) the result was -3.949%.
For COCCn1nnc(-c2cccc(OC)c2)n1 the result was 7.563%.
For CS(=O)(=O)NCc1cnn(-c2ccccc2)c1 the result was -4.879%.
For O=C1CCC(Nc2nc(-c3ccccc3)ns2)CN1 (stereo not drawn) the result was -6.838%.
For COC(=O)C(O)C(C)(C)NC(=O)Nc1ccccn1 (stereo not drawn) the result was 19.68%.
For CN(CC(=O)N(C)C)Cc1nc2ccccc2o1 the result was -12.83%.
For CC1(NS(=O)(=O)c2ccc(Cl)cc2F)CCS(=O)(=O)C1 (stereo not drawn) the result was -11.27%.
For CN(C)C(=O)C1(N)CCCCC1 the result was 5.204%.
For CC(=O)NCC1CCCN(c2ccc(C#N)cn2)C1 (stereo not drawn) the result was -7.873%.
For NC1CCN(c2ncccc2Cl)C1 (stereo not drawn) the result was 8.617%.
For CO[C@H]1CNCC1NS(=O)(=O)CCOC(C)C (stereo partly drawn) the result was -20.08%.
For COCCC1(C(=O)N2CC(N(C)C)C2)CCCC1 the result was -2.232%.
For O=c1c2ccccc2ncn1CCN1CCOCC1 the result was 0.7206%.
For CN1C(=O)CNc2ccccc21 the result was 5.354%.
For NCC(CO)Cc1ccco1 (stereo not drawn) the result was 2.857%.
For CC(C)NC(=O)CN(C)C(=O)c1cn2ccccc2n1 the result was -5.094%.
For Cc1cc(C(=O)N2C[C@@H](CO)[C@H](N(C)C)C2)c(C)o1 the result was 10.25%.
For CCC1CN(C)c2ccccc2CN1CCS(C)(=O)=O (stereo not drawn) the result was -11.74%.
For Cc1n[nH]cc1CNCCS(=O)(=O)Cc1ccccc1 the result was -2.614%.
For CN(C)c1ccc(C(=O)NC[C@@H]2CCCO2)cn1 the result was -5.936%.
For Cc1nn(C)c(C(=O)NCCCn2ccnc2)c1Cl the result was -0.817%.
For CC(C)N(C)CC(=O)N1CCN(CC(C)(C)O)CC1 the result was 0.1051%.
For COCCC(CO)NC(=O)NCc1cc(Cl)ccc1C (stereo not drawn) the result was -1.129%.
For CNS(=O)(=O)CCNc1ncnc2c1CCNCC2 the result was -12.31%.
For CC(C)n1nccc1NC(=O)CN(C)Cc1ccco1 the result was -0.1518%.
For CCCn1ccnc1CNC(=O)[C@H](N)CC(C)(C)C the result was -2.674%.
For Cc1cc(C)c(CNC(=O)CN2CSCC2=O)c(=O)[nH]1 the result was 17.52%.
For COC(=O)c1ccc(=O)n(Cc2ccco2)c1 the result was -13.61%.
For COCCn1cnnc1SCC(=O)NCC(F)(F)F the result was -10.9%.
For CC(C)n1nccc1NC(=O)CNC(=O)c1cccs1 the result was -2.696%.
For Cn1ccc(C(=O)Nc2sc3c(c2C(N)=O)CCC3)n1 the result was 0.6359%.
For COc1ccc(CCN)cc1S(N)(=O)=O the result was -6.279%.
For CC(=O)N1CCC(CSc2n[nH]c(=O)n2C)CC1 the result was -15.94%.
For CN(C(=O)NCc1ccco1)C1(CCO)CCOCC1 the result was -3.362%.
For NC1CC(c2cc(NCC[C@H]3CCCN3)ncn2)C1 (stereo partly drawn) the result was 1.851%.
For Cc1csc(N2CCN(C(=O)c3scnc3C)CC2)n1 the result was -4.1%.
For COCCC(C)Nc1c[nH]nc1-c1ccccn1 (stereo not drawn) the result was 4.849%.
For Cc1cc(C(=O)N[C@H]2CC[C@H](O)CC2)cc(C)n1 the result was 4.153%.
For Cc1cc(C(=O)N2C[C@@H](CO)[C@H](N(C)C)C2)on1 the result was -17.88%.
For Cc1cccc2c(=O)[nH]cnc12 the result was -1.179%.
For CCOC(=O)C1=C(CN(C)CC)NC(=O)NC1 the result was -11.98%.
For COc1ccc(CN2C[C@@H](O)[C@@H](O)C2)c(Br)c1OC the result was -7.476%.
For COC(=O)COc1ccc(C(C)=O)cc1Cl the result was -2.663%.
For CN1CCN(C(=O)Cc2ccc3c(c2)OCO3)CC1 the result was 9.395%.
For COc1ccc(CCCC(=O)NC2CCOC2)cc1 (stereo not drawn) the result was -5.594%.
For CCn1cc(C(=O)Nc2nnc(C)s2)cn1 the result was -10.64%.

The first 5 entries again:

{"smiles": "CC(Cn1cccn1)NC(=O)CN1CCOC1=O", "stereo": "stereo not drawn", "percent effect": -3.949}
{"smiles": "COCCn1nnc(-c2cccc(OC)c2)n1", "percent effect": 7.563}
{"smiles": "CS(=O)(=O)NCc1cnn(-c2ccccc2)c1", "percent effect": -4.879}
{"smiles": "O=C1CCC(Nc2nc(-c3ccccc3)ns2)CN1", "stereo": "stereo not drawn", "percent effect": -6.838}
{"smiles": "COC(=O)C(O)C(C)(C)NC(=O)Nc1ccccn1", "stereo": "stereo not drawn", "percent effect": 19.68}